Assay results taken from article PMC11489182.
Results are given in words; binding and its absence hold for the method and conditions named. In cells and extracts the contact can be indirect. Some binding calls cover weakened binding; strength is not graded here. Tags and fused reporters may be left off the sequences shown.

By UniProt entry, the sequences of proteins in these tests, tags left out. Where a name states a change or a piece, a line headed by the entry shows the natural chain unless it says otherwise.
UniProt P38936: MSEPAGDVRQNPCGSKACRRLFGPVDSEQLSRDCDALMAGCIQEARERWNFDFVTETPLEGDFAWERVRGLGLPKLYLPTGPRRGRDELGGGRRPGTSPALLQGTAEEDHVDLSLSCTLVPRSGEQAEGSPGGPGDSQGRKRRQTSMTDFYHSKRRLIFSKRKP

T1: Flag-tagged full-length USP44 (ubiquitin-specific protease 44) (human) (UniProt Q9H0E7)
T1 sequence: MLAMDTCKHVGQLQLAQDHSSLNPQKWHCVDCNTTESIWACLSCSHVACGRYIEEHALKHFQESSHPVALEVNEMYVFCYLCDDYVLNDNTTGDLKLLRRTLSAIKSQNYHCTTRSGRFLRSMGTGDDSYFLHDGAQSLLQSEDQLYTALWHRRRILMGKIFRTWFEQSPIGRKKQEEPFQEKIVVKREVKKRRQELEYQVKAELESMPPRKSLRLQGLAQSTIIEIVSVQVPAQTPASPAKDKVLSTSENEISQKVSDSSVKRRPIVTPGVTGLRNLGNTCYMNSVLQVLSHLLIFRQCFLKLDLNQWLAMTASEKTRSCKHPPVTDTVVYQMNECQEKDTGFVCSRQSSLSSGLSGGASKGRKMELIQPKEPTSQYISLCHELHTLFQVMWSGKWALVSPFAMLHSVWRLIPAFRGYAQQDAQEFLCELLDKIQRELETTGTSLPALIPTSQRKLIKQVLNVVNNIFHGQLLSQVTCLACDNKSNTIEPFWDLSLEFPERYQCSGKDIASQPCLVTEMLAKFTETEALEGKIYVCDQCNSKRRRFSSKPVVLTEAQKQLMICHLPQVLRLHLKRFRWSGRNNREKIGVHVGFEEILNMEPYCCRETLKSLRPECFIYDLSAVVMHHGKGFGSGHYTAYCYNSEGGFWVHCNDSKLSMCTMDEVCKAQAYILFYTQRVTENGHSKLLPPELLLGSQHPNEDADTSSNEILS

T2: Flag-USP44 mutant C282A (catalytically inactive) (human) (UniProt Q9H0E7)
T2 sequence: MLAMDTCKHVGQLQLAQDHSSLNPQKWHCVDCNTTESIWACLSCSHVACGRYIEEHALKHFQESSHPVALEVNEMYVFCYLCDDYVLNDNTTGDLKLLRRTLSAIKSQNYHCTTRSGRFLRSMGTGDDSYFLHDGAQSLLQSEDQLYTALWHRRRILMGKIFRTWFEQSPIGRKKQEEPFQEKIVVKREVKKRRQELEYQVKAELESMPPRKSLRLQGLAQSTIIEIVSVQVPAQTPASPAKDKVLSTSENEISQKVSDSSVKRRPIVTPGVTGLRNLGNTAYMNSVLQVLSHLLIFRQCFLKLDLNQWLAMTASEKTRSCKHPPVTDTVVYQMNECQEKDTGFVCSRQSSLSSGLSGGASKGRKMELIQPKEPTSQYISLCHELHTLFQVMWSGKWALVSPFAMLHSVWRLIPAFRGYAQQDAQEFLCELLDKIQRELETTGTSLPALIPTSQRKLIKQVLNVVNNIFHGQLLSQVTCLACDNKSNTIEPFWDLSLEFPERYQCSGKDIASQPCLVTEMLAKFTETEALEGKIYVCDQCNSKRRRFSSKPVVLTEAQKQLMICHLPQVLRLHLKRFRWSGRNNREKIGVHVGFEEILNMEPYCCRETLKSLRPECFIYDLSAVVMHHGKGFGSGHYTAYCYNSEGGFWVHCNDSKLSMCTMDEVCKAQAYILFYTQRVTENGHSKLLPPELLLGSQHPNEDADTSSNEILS


Legend:
Assay in all cases: co-IP; lysates of transfected 8505C or K1 cells incubated overnight at 4°C with primary antibody (anti-Flag or anti-p21) or IgG, Protein A/G-agarose beads 4 h at 4°C, washed with RIPA buffer, western blotting
[1] = molecular target: T1, Flag-tagged full-length USP44 (ubiquitin-specific protease 44) (human)
[2] = molecular target: T2, Flag-USP44 mutant C282A (catalytically inactive) (human)
[3] = molecular target: endogenous p21 protein (human (endogenous in 8505C and K1)) (UniProt P38936)

Row | Molecule | binding [1] | binding [2] | binding [3]
1 | Myc-tagged p21 C-terminal region (amino acids 91-140) (from UniProt P38936 91-140) (domain or fragment) | binds | – | –
2 | endogenous p21 protein (from UniProt P38936 1-164) | binds | binds | –
3 | Flag-tagged full-length USP44 (ubiquitin-specific protease 44) (enzyme, UniProt Q9H0E7 1-712) MLAMDTCKHVGQLQLAQDHSSLNPQKWHCVDCNTTESIWACLSCSHVACGRYIEEHALKHFQESSHPVALEVNEMYVFCYLCDDYVLNDNTTGDLKLLRRTLSAIKSQNYHCTTRSGRFLRSMGTGDDSYFLHDGAQSLLQSEDQLYTALWHRRRILMGKIFRTWFEQSPIGRKKQEEPFQEKIVVKREVKKRRQELEYQVKAELESMPPRKSLRLQGLAQSTIIEIVSVQVPAQTPASPAKDKVLSTSENEISQKVSDSSVKRRPIVTPGVTGLRNLGNTCYMNSVLQVLSHLLIFRQCFLKLDLNQWLAMTASEKTRSCKHPPVTDTVVYQMNECQEKDTGFVCSRQSSLSSGLSGGASKGRKMELIQPKEPTSQYISLCHELHTLFQVMWSGKWALVSPFAMLHSVWRLIPAFRGYAQQDAQEFLCELLDKIQRELETTGTSLPALIPTSQRKLIKQVLNVVNNIFHGQLLSQVTCLACDNKSNTIEPFWDLSLEFPERYQCSGKDIASQPCLVTEMLAKFTETEALEGKIYVCDQCNSKRRRFSSKPVVLTEAQKQLMICHLPQVLRLHLKRFRWSGRNNREKIGVHVGFEEILNMEPYCCRETLKSLRPECFIYDLSAVVMHHGKGFGSGHYTAYCYNSEGGFWVHCNDSKLSMCTMDEVCKAQAYILFYTQRVTENGHSKLLPPELLLGSQHPNEDADTSSNEILS | – | – | binds
